Measurements from the supplement of paper PMC7661543.
The effect of the compound repeats well; differences between the knockouts mostly do not.

System: ZR-75-1
Experiment: relative cell number vs DMSO control (72 h) (% of DMSO); higher = less growth inhibition (more cells)
Experimental: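 QMAP-Seq: a pool of 5 breast cancer cell lines (ZR-75-1, SKBR3, HCC-38, MDA-MB-231, BT-20), each carrying 12 doxycycline-inducible Cas9 sgRNA perturbations (11 knockouts plus non-targeting sgNT), was treated with compounds for 72 h at four 10-fold doses (10 nM-10 uM or 1 nM-1 uM range). Barcodes were amplified and sequenced, and cell number was interpolated from 293T spike-in standard curves. The result is expressed as % of the median of DMSO wells. Two biological replicates.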

CCC(C)(C)C(=O)O[C@H]1C[C@@H](C)C=C2C=C[C@H](C)[C@H](CC[C@@H]3C[C@@H](O)CC(=O)O3)[C@H]21 [Simvastatin]
Details	relative cell number
sgRNA knockout: sgATF3, 10 nM	96
sgRNA knockout: sgATF3, 100 nM	62.4
sgRNA knockout: sgATF3, 1000 nM	85.2
sgRNA knockout: sgATF3, 10000 nM	66.3
sgRNA knockout: sgATF4, 10 nM	93
sgRNA knockout: sgATF4, 100 nM	92.9
sgRNA knockout: sgATF4, 1000 nM	50.2
sgRNA knockout: sgATF4, 10000 nM	102
sgRNA knockout: sgATF6, 10 nM	95
sgRNA knockout: sgATF6, 100 nM	108
sgRNA knockout: sgATF6, 1000 nM	61.5
sgRNA knockout: sgATF6, 10000 nM	85.4
sgRNA knockout: sgATG7, 10 nM	121
sgRNA knockout: sgATG7, 100 nM	73.5
sgRNA knockout: sgATG7, 1000 nM	136
sgRNA knockout: sgATG7, 10000 nM	83
sgRNA knockout: sgERN1, 10 nM	106
sgRNA knockout: sgERN1, 100 nM	102.3
sgRNA knockout: sgERN1, 1000 nM	83.3
sgRNA knockout: sgERN1, 10000 nM	76.5
sgRNA knockout: sgHSF2, 10 nM	99.5
sgRNA knockout: sgHSF2, 100 nM	89.4
sgRNA knockout: sgHSF2, 1000 nM	107
sgRNA knockout: sgHSF2, 10000 nM	81.5
sgRNA knockout: sgNFE2L2, 10 nM	122
sgRNA knockout: sgNFE2L2, 100 nM	103
sgRNA knockout: sgNFE2L2, 1000 nM	97.4
sgRNA knockout: sgNFE2L2, 10000 nM	89.5
sgRNA knockout: sgSLC35F2, 10 nM	84.4
sgRNA knockout: sgSLC35F2, 100 nM	75.6
sgRNA knockout: sgSLC35F2, 1000 nM	83.1
sgRNA knockout: sgSLC35F2, 10000 nM	70.3
sgRNA knockout: sgXBP1, 10 nM	89.1
sgRNA knockout: sgXBP1, 100 nM	110
sgRNA knockout: sgXBP1, 1000 nM	104
sgRNA knockout: sgXBP1, 10000 nM	80.5

CN1CCN(c2ccc(C(=O)Nc3n[nH]c4ccc(Cc5cc(F)cc(F)c5)cc34)c(NC3CCOCC3)c2)CC1 [Entrectinib]
Details	relative cell number
sgRNA knockout: sgATF3, 1 nM	96.1
sgRNA knockout: sgATF3, 10 nM	130
sgRNA knockout: sgATF3, 100 nM	102
sgRNA knockout: sgATF3, 1000 nM	95.4
sgRNA knockout: sgATF4, 1 nM	104
sgRNA knockout: sgATF4, 10 nM	141
sgRNA knockout: sgATF4, 100 nM	78.5
sgRNA knockout: sgATF4, 1000 nM	55
sgRNA knockout: sgATF6, 1 nM	123
sgRNA knockout: sgATF6, 10 nM	83.4
sgRNA knockout: sgATF6, 100 nM	111
sgRNA knockout: sgATF6, 1000 nM	94.9
sgRNA knockout: sgATG7, 1 nM	77.1
sgRNA knockout: sgATG7, 10 nM	105
sgRNA knockout: sgATG7, 100 nM	74.4
sgRNA knockout: sgATG7, 1000 nM	75.5
sgRNA knockout: sgERN1, 1 nM	82.7
sgRNA knockout: sgERN1, 10 nM	86.7
sgRNA knockout: sgERN1, 100 nM	96.8
sgRNA knockout: sgERN1, 1000 nM	71.6
sgRNA knockout: sgHSF2, 1 nM	95.3
sgRNA knockout: sgHSF2, 10 nM	91.3
sgRNA knockout: sgHSF2, 100 nM	70.8
sgRNA knockout: sgHSF2, 1000 nM	76.4
sgRNA knockout: sgNFE2L2, 1 nM	71.4
sgRNA knockout: sgNFE2L2, 10 nM	111.2
sgRNA knockout: sgNFE2L2, 100 nM	96.7
sgRNA knockout: sgNFE2L2, 1000 nM	93.6
sgRNA knockout: sgSLC35F2, 1 nM	86.5
sgRNA knockout: sgSLC35F2, 10 nM	91.2
sgRNA knockout: sgSLC35F2, 100 nM	148
sgRNA knockout: sgSLC35F2, 1000 nM	125
sgRNA knockout: sgXBP1, 1 nM	84.6
sgRNA knockout: sgXBP1, 10 nM	84.1
sgRNA knockout: sgXBP1, 100 nM	79.4
sgRNA knockout: sgXBP1, 1000 nM	81.8

S=c1nc[nH]c2nc[nH]c12 [6-Mercaptopurine]
Details	relative cell number
sgRNA knockout: sgATF3, 10 nM	134
sgRNA knockout: sgATF3, 100 nM	77.1
sgRNA knockout: sgATF3, 1000 nM	82.6
sgRNA knockout: sgATF3, 10000 nM	56.1
sgRNA knockout: sgATF4, 10 nM	125
sgRNA knockout: sgATF4, 100 nM	97
sgRNA knockout: sgATF4, 1000 nM	82.3
sgRNA knockout: sgATF4, 10000 nM	50.91
sgRNA knockout: sgATF6, 10 nM	97.9
sgRNA knockout: sgATF6, 100 nM	69
sgRNA knockout: sgATF6, 1000 nM	98.7
sgRNA knockout: sgATF6, 10000 nM	45.4
sgRNA knockout: sgATG7, 10 nM	100
sgRNA knockout: sgATG7, 100 nM	71.9
sgRNA knockout: sgATG7, 1000 nM	93.3
sgRNA knockout: sgATG7, 10000 nM	60
sgRNA knockout: sgERN1, 10 nM	114
sgRNA knockout: sgERN1, 100 nM	94.2
sgRNA knockout: sgERN1, 1000 nM	86.1
sgRNA knockout: sgERN1, 10000 nM	65
sgRNA knockout: sgHSF2, 10 nM	104
sgRNA knockout: sgHSF2, 100 nM	84.3
sgRNA knockout: sgHSF2, 1000 nM	81.7
sgRNA knockout: sgHSF2, 10000 nM	58
sgRNA knockout: sgNFE2L2, 10 nM	80.1
sgRNA knockout: sgNFE2L2, 100 nM	63.1
sgRNA knockout: sgNFE2L2, 1000 nM	108
sgRNA knockout: sgNFE2L2, 10000 nM	56.5
sgRNA knockout: sgSLC35F2, 10 nM	101
sgRNA knockout: sgSLC35F2, 100 nM	79.7
sgRNA knockout: sgSLC35F2, 1000 nM	90.5
sgRNA knockout: sgSLC35F2, 10000 nM	52.2
sgRNA knockout: sgXBP1, 10 nM	89.7
sgRNA knockout: sgXBP1, 100 nM	63.9
sgRNA knockout: sgXBP1, 1000 nM	92.6
sgRNA knockout: sgXBP1, 10000 nM	51.37

CC(C)(C#N)c1ccc(N2C(=O)OCc3cnc4ccc(-c5cnc6ccccc6c5)cc4c32)cc1
Details	relative cell number
sgRNA knockout: sgATF3, 10 nM	85.4
sgRNA knockout: sgATF3, 100 nM	102
sgRNA knockout: sgATF3, 1000 nM	99.1
sgRNA knockout: sgATF3, 10000 nM	38.1
sgRNA knockout: sgATF4, 10 nM	92.8
sgRNA knockout: sgATF4, 100 nM	89.8
sgRNA knockout: sgATF4, 1000 nM	80.2
sgRNA knockout: sgATF4, 10000 nM	51.5
sgRNA knockout: sgATF6, 10 nM	69.4
sgRNA knockout: sgATF6, 100 nM	128
sgRNA knockout: sgATF6, 1000 nM	77
sgRNA knockout: sgATF6, 10000 nM	48.4
sgRNA knockout: sgATG7, 10 nM	106
sgRNA knockout: sgATG7, 100 nM	91.1
sgRNA knockout: sgATG7, 1000 nM	120
sgRNA knockout: sgATG7, 10000 nM	39.6
sgRNA knockout: sgERN1, 10 nM	82.4
sgRNA knockout: sgERN1, 100 nM	108
sgRNA knockout: sgERN1, 1000 nM	74.8
sgRNA knockout: sgERN1, 10000 nM	46.4
sgRNA knockout: sgHSF2, 10 nM	99.7
sgRNA knockout: sgHSF2, 100 nM	97.2
sgRNA knockout: sgHSF2, 1000 nM	80.4
sgRNA knockout: sgHSF2, 10000 nM	39.2
sgRNA knockout: sgNFE2L2, 10 nM	113
sgRNA knockout: sgNFE2L2, 100 nM	93.9
sgRNA knockout: sgNFE2L2, 1000 nM	80.6
sgRNA knockout: sgNFE2L2, 10000 nM	37.3
sgRNA knockout: sgSLC35F2, 10 nM	104
sgRNA knockout: sgSLC35F2, 100 nM	86.3
sgRNA knockout: sgSLC35F2, 1000 nM	73.7
sgRNA knockout: sgSLC35F2, 10000 nM	34.3
sgRNA knockout: sgXBP1, 10 nM	107
sgRNA knockout: sgXBP1, 100 nM	89.4
sgRNA knockout: sgXBP1, 1000 nM	85.9
sgRNA knockout: sgXBP1, 10000 nM	31.8
